Some of the results follow.
compound: CCN(CC)Cc1ccc2cc(COC(=O)Nc3ccc(C(=O)NO)cc3)ccc2c1 [givinostat]; test: log2 fold change, soluble protein after heating vs DMSO (PISA); higher = thermal stabilisation; K562 cells, 10 uM, 30 min; active = over 0.2 and 3.5 SD of the protein, either way, in both replicates (recomputed)
Method in brief: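 Values are thermal stability changes relative to control samples and are taken from duplicates. They are stated as log2 fold changes. Before quantification by TMTpro 16plex LC-MS/MS with equalised channel sums, K562 cells at 2×10^6 cells/mL were treated with 10 μM compound for 30 min, heated in aliquots for 3 min across 48°C-58°C, pooled, extracted in PBS with 0.5% NP-40 at 4°C, and centrifuged at 21,000xg for 90 min to give the soluble supernatant.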

Amino acid sequences for entries named in this document (tags omitted). A change or cut given only in a name is not applied to a line headed by its entry.
UniProt Q6UX04: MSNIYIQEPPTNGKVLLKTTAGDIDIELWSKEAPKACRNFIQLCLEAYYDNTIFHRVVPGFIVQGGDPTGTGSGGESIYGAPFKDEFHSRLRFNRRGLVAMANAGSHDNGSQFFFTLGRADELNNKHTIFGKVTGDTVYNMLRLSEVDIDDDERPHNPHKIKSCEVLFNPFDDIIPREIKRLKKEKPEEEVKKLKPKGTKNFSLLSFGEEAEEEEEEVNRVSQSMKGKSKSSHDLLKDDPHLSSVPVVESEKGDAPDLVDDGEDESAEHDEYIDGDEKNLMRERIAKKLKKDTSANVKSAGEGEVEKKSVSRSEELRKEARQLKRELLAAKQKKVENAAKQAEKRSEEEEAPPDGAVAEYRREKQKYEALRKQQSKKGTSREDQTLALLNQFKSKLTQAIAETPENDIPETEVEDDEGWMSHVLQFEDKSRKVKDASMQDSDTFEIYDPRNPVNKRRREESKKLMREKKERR
UniProt Q7L1T6: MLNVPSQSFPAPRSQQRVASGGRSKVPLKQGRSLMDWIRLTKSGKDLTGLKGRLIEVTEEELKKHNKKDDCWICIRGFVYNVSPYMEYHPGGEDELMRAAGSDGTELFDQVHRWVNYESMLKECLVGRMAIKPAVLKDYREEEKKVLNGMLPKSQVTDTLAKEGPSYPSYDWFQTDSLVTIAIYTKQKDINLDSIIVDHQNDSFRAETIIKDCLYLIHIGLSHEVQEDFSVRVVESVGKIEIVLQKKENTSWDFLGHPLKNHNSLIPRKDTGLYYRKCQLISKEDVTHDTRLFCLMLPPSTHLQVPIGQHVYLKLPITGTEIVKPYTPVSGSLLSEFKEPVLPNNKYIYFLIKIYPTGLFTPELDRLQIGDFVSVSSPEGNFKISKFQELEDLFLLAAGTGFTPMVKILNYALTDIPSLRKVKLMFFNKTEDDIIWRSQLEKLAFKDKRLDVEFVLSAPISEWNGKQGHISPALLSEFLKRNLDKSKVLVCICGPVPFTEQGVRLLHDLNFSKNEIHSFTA
UniProt P32929, whole entry, looked up: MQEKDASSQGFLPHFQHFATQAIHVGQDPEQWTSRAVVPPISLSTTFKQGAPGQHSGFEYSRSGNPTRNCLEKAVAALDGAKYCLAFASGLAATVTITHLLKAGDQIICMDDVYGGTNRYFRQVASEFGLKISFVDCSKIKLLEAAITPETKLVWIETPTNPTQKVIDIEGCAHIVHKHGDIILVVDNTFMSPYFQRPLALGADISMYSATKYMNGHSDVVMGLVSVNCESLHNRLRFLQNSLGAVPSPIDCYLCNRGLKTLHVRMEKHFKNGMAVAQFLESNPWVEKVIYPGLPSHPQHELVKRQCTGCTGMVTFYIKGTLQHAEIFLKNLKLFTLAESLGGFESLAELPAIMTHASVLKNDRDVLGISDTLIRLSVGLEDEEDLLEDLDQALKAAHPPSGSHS
UniProt P07711: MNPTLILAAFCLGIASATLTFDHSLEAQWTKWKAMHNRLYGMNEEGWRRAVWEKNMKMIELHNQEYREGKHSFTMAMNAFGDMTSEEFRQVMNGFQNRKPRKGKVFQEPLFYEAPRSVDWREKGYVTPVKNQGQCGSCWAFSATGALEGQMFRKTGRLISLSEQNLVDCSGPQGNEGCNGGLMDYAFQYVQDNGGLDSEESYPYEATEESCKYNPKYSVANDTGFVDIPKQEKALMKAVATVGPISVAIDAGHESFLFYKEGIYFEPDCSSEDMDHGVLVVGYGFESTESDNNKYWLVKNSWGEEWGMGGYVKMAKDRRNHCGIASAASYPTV
UniProt P35222, whole entry, looked up: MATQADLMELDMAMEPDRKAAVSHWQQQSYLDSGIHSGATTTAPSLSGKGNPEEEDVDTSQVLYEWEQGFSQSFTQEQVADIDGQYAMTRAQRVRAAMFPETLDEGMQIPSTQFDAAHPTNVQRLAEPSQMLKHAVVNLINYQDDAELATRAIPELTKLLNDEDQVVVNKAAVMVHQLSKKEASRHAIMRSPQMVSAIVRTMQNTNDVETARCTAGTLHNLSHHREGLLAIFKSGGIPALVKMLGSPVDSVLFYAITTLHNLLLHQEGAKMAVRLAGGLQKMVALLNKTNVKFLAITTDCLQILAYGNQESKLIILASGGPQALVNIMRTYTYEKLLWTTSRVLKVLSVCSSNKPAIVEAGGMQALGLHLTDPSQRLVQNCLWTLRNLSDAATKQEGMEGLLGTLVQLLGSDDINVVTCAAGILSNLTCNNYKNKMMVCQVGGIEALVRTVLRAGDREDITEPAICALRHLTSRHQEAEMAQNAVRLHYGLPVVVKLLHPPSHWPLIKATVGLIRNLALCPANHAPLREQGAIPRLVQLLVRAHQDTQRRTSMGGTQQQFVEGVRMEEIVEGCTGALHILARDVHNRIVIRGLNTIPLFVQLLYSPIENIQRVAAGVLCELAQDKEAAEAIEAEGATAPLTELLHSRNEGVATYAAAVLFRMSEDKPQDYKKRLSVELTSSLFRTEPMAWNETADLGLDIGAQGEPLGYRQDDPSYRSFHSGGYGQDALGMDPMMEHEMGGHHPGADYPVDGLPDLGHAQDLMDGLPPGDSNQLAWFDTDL
UniProt O60888: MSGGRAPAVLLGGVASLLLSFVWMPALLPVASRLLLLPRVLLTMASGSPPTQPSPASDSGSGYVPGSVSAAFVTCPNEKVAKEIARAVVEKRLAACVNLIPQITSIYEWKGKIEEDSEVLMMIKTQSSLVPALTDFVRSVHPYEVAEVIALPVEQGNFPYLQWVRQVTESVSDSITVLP
UniProt Q14118: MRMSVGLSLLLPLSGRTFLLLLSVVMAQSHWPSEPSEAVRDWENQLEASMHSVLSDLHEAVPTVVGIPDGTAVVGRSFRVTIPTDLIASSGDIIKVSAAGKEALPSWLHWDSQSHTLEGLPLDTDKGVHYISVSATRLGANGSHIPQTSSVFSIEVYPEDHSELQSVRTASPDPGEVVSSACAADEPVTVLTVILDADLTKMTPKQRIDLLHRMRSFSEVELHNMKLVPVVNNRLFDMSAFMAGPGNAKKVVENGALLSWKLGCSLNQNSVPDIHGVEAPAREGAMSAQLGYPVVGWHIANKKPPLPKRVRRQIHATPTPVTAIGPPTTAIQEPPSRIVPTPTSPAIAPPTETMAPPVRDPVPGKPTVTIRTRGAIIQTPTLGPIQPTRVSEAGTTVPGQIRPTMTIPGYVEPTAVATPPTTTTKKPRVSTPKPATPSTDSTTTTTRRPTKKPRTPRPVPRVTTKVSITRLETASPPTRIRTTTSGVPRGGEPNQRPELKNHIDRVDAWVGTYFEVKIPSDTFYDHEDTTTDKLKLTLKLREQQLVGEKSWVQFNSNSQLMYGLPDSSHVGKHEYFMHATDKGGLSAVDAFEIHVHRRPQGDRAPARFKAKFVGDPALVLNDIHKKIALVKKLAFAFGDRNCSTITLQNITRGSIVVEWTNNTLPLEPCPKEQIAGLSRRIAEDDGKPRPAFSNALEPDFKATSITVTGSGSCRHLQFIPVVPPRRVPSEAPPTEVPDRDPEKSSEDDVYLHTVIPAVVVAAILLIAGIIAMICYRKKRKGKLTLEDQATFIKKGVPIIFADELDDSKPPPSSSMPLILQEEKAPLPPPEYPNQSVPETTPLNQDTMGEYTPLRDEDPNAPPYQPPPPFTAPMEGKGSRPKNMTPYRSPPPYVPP
UniProt Q9UHQ9: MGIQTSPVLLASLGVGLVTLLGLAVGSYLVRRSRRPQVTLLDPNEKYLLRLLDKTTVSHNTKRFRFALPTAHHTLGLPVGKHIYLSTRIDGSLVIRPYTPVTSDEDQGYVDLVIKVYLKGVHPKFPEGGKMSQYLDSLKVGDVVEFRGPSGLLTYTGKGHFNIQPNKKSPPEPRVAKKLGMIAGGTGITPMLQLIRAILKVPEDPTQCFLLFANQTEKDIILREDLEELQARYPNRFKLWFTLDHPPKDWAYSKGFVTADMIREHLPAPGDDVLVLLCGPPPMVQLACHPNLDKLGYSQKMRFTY
UniProt Q9H467: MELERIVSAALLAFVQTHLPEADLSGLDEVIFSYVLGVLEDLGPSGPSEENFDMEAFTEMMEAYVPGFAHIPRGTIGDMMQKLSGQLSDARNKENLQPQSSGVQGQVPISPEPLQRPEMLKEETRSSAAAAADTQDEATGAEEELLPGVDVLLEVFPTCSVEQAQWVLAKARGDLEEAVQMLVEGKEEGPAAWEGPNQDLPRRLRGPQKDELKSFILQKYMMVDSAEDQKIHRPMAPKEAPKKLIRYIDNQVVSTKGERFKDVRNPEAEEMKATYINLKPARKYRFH
UniProt Q12996: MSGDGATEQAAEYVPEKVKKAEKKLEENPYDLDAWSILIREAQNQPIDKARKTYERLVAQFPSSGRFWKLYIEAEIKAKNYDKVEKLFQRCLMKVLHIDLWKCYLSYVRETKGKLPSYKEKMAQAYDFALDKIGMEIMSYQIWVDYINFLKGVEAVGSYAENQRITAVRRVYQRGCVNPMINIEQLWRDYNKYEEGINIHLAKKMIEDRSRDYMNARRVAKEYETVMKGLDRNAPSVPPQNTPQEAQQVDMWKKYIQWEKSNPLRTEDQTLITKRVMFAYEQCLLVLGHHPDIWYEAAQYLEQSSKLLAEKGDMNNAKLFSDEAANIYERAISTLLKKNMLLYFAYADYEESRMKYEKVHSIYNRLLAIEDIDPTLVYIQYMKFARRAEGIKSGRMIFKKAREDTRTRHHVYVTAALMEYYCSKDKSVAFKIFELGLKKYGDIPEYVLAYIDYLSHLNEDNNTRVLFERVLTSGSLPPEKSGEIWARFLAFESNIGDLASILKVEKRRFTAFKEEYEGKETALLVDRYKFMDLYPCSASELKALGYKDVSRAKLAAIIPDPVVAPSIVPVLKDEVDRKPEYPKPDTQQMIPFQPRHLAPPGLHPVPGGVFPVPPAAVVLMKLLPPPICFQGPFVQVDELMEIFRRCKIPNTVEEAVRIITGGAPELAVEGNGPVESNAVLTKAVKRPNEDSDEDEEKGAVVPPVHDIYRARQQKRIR
UniProt Q9UK59: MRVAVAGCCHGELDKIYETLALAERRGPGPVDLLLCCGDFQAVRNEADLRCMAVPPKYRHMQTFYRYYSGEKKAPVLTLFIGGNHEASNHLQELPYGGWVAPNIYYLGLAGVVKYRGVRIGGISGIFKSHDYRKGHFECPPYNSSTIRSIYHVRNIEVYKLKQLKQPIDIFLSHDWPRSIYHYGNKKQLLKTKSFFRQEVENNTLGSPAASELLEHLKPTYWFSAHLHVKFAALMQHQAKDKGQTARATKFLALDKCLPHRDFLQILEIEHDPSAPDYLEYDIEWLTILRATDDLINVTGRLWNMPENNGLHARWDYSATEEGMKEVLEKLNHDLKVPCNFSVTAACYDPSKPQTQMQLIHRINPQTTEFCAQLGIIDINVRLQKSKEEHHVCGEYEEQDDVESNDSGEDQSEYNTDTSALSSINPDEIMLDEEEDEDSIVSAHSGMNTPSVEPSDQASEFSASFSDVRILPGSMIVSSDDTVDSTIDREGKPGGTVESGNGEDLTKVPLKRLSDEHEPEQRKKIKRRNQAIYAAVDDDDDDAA
UniProt Q2VPK5: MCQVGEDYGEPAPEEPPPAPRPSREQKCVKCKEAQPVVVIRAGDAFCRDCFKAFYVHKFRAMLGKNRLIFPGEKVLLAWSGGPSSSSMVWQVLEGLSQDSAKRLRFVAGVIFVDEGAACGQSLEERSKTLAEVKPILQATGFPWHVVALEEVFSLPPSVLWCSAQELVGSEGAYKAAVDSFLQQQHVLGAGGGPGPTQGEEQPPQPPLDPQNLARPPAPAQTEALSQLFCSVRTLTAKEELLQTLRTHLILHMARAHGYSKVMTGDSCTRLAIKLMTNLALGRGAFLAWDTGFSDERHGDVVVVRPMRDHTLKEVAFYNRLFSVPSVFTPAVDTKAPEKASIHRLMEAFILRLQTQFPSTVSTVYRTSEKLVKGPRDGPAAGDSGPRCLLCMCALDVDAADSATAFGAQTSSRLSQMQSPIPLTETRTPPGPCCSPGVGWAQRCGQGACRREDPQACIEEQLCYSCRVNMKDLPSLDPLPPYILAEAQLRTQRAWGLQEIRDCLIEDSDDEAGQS
UniProt Q14247: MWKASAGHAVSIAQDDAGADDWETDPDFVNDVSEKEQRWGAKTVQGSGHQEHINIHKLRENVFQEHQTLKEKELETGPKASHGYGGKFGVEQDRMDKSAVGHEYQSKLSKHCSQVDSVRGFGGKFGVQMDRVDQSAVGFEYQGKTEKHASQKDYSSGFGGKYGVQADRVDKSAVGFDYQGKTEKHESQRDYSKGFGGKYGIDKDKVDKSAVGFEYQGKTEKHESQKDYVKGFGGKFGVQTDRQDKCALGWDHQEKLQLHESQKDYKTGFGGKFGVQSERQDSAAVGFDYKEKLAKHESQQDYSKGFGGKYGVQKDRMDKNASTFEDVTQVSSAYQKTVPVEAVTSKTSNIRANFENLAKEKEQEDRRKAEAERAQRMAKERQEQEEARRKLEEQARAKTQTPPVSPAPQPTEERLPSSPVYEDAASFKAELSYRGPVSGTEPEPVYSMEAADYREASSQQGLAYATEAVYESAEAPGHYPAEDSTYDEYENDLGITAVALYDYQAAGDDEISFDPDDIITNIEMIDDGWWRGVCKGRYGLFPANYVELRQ

log2 fold change, inactive:
CT47A1 (UniProt Q5JQC4) 0.028
CWC27 (UniProt Q6UX04) 0.082
CYB5B, A0A499FJ32 0.037
CUX1 isoform 2 (UniProt Q13948) -0.049
CYB5R4 (UniProt Q7L1T6) 0.017
CYHR1 (UniProt E9PJD7) -0.063
DCAF7 (UniProt P61962) 0.016
CT45A10 (UniProt P0DMU9) 0.039
CTPS1 (UniProt P17812) -0.024
CTH (UniProt P32929) -0.023
CTNNA2 (UniProt P26232) 0.014
CUL1 (UniProt Q13616) -0.014
CTSL (UniProt P07711) 0.121
CTNNB1 (UniProt P35222) 0.129
CYB5R3 isoform 3 (UniProt P00387) 0.003
CUTA isoform 2 (UniProt O60888) -0.044
CTIF isoform 2 (UniProt O43310) -0.029
CUL3 (UniProt Q13618) -0.01
CUL2 isoform 2 (UniProt Q13617) -0.053
CST3 (UniProt P01034) 0
DAG1 (UniProt Q14118) 0.019
D2HGDH (UniProt Q8N465) -0.036
CTSV (UniProt O60911) 0.194
CSTF1 (UniProt Q05048) -0.115
CYB5R1 (UniProt Q9UHQ9) 0.001
CTBP1 (UniProt Q13363) -0.002
CYFIP2 (UniProt Q96F07) -0.004
CUEDC2 (UniProt Q9H467) 0.055
CXorf56 (UniProt Q9H5V9) 0.048
CSPP1 (UniProt Q1MSJ5) -0.021
DCAF15 (UniProt Q66K64) 0.02
CSTF3 (UniProt Q12996) -0.05
CYFIP1 (UniProt Q7L576) -0.005
DCTN3 (UniProt O75935) 0.027
DBR1 (UniProt Q9UK59) -0.16
CYC1 (UniProt P08574) -0.004
CTU2 (UniProt Q2VPK5) 0.006
CTBS (UniProt Q01459) 0.039
DCAF10 (UniProt Q5QP82) -0.094
CTTN (UniProt Q14247) -0.039

For convenience, part of the list above.
log2 fold change, inactive:
CUL1 (UniProt Q13616) -0.014
CTSL (UniProt P07711) 0.121
